Experimental data as given in PubChem BioAssay AID2099 (Broad Institute, 2009).
Hit rate of the full screen: of about 330,000 compounds, about 230 (0.07%) were called active. Inconclusive means that the source gave no clear call. Such entries were picked first, then a sample of the others.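 How the source made its calls: active means more than half of a compound's replicate wells show inhibition beyond 50%, single wells judged on their own value; inconclusive means some, but no more than half, of replicates pass 50% inhibition; inactive means no replicate passes 50% inhibition.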

Sequences of proteins named here, by UniProt entry; tags and fusion partners are left off. Residues count along the entry.
UniProt Q9H3R0, 1-420 limits assumed: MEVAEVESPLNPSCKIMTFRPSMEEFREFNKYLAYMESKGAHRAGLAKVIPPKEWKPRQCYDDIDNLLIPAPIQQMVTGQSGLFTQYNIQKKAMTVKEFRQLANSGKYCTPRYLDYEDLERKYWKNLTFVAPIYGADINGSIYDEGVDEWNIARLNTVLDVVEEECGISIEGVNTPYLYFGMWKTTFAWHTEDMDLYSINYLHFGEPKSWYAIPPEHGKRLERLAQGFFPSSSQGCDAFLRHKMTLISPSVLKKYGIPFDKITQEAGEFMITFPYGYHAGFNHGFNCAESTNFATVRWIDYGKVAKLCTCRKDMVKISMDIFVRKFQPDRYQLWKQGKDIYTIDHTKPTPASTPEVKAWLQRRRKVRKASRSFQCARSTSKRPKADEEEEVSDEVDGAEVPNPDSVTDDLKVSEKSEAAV

Target: Lysine-specific demethylase 4C (Homo sapiens) (UniProt Q9H3R0)
Experiment: inhibitors of GASC-1 histone demethylase, primary screen, biochemical, fluorescence, DELFIA europium (AID 2099);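 further: signal counts dimethyl H3K9 product captured on neutravidin plate; 0% = median of DMSO wells and 100% = 0.3 times that DMSO median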
Conditions: GST-JMJD2C(1-420) H3K9me3 demethylation, at 2.35 µM, active compounds read high

Row | SMILES | inhibition
1 | O=C(CN1CCOCC1)NN=C(c1ccccc1)c1ccccc1 | inactive: 0.996%
2 | C#C[C@]1(O)CC[C@H]2[C@@H]3CCC4=Cc5oncc5C[C@]4(C)[C@H]3CC[C@@]21C | inconclusive: -51.2%
3 | CCOC(=O)c1c(-c2ccc(C)c(C)c2)csc1NC(=O)C1CC=CCC1C(=O)O (stereo not given) | inactive: -1.22%
4 | N#CC1(NC(=O)CSc2nc3ccc([N+](=O)[O-])cc3s2)CCCCC1 | inconclusive: -20.6%
5 | Cc1c(OCC(=O)NCCCN2CCOCC2)ccc2c(-c3ccccc3)cc(=O)oc12 | inconclusive: -174%
6 | COCCCNC(=O)c1cccc(S(=O)(=O)N2CC3(C)CC2CC(C)(C)C3)c1 (stereo not given) | inactive: 5.65%
7 | O=C(NCCc1ccc(Cl)cc1)c1ccc2[nH]c(=O)c(=O)[nH]c2c1 | inconclusive: -157%
8 | Cc1ccc(N2C(=O)NC(NC(=O)C(C)(C)C)(C(F)(F)F)C2=O)cc1C (stereo not given) | inactive: -10.3%
9 | COc1ccc(C2C3=C(N=C4SCC(=O)N42)c2ccccc2CC3)cc1OC (stereo not given) | inactive: -4.72%
10 | CCOc1ccc2nc3sc(C(=O)N4CCN(C)CC4)c(N)c3cc2c1 | inconclusive: -51.6%
11 | O=c1cc(-c2ccc(O)c(O)c2)oc2c(C3O[C@H](CO)[C@@H](O)[C@H](O)[C@H]3O)c(O)cc(O)c12 (stereo not given in full) | active: 64%
12 | Cc1nn(C)cc1/C=C/C(=O)c1ccccc1 | inconclusive: -177%
13 | CC(=O)NCC(=O)N(Cc1ccco1)C1(C(=O)NC2CCCC2)CCCCC1 | inconclusive: -195%
14 | O=C(CCN1C(=O)/C(=C/c2ccccc2Cl)SC1=S)NC1CCS(=O)(=O)C1 (stereo not given) | inconclusive: -92.6%
15 | CCN(c1ccccc1)S(=O)(=O)c1cc(C(=O)Nc2ccc(Br)cc2)ccc1F | inactive: -6.85%
16 | Cc1cc(=O)oc2cc(NC(=O)c3ccccc3Cl)ccc12 | inactive: 8.79%
17 | CCC(=O)c1cn(CC(=O)Nc2ccc(C)cc2)c2ccccc12 | inactive: -0.749%
18 | CC1=N/C(=C/c2ccc([N+](=O)[O-])cc2)C(=O)N1c1ccc(Cl)cc1Cl | inconclusive: -95.9%
19 | O=C(COC(=O)CCc1c[nH]c(=O)[nH]1)Nc1ccccc1 | inconclusive: -115%
20 | O=C(O)c1c(C(=O)O)c(-c2ccc(F)cc2)n2c1CCC2 | inconclusive: -55%
21 | Cc1ccccc1N=C1N=C(N)c2ccccc21 | active: 59.5%
22 | CCOC(=O)c1c(CC(C)C)csc1NC(=O)C(C)C | inactive: 5.77%
23 | CN(CCOc1ccccc1)CC(=O)Nc1ccc(Br)cc1F | inconclusive: -67.9%
24 | O=C(O)c1ccccc1N/N=C/c1cc(Br)cc(Br)c1O | inactive: -1.07%
25 | COc1ccc(NC(=O)CSc2nnc(Cc3ccccc3)c(=O)n2N)cc1 | inconclusive: -38.3%
26 | Cc1ccc(C(=O)O/N=C(\N)c2ccccn2)c(C)c1 | inactive: -2.17%
27 | C=CCn1c(SCC(=O)Nc2sccc2C(N)=O)nc2sc(C)c(C)c2c1=O | inconclusive: -34.7%
28 | CCN(c1ccccc1)S(=O)(=O)c1ccc(C(=O)Nc2ccccn2)cc1 | inconclusive: -140%

Looked up one by one from the list above:
Row | SMILES | inhibition
26 | Cc1ccc(C(=O)O/N=C(\N)c2ccccn2)c(C)c1 | inactive: -2.17%
3 | CCOC(=O)c1c(-c2ccc(C)c(C)c2)csc1NC(=O)C1CC=CCC1C(=O)O (stereo not given) | inactive: -1.22%
12 | Cc1nn(C)cc1/C=C/C(=O)c1ccccc1 | inconclusive: -177%
24 | O=C(O)c1ccccc1N/N=C/c1cc(Br)cc(Br)c1O | inactive: -1.07%

(further entries)

Row | SMILES | inhibition
29 | COCCn1c(SCC(=O)NCc2ccccc2)nc2ccccc21 | inactive: -2.64%
30 | C=CCSc1nc(-c2ccc(OC)cc2)c(C#N)c(=O)n1CC=C | inconclusive: -50.6%
31 | COc1cc(CN2CCCC(N3CCN(c4ccc(F)cc4)CC3)C2)ccc1F (stereo not given) | inactive: 2.64%
32 | Cc1[nH]c2ccccc2c1SCc1nnc(SCc2ccc(Cl)cc2)n1C | inactive: -2.2%
33 | CSc1nc2ccc(NS(=O)(=O)c3ccc(Br)s3)cc2s1 | inconclusive: -46.6%
34 | COCCCN1C(=O)c2ccc(C(=O)OCC(=O)NCCc3ccccc3)cc2C1=O | inactive: 9.15%
35 | CC[n+]1ccc(C[n+]2ccccc2)c2ccccc21 | inactive: 6.78%
36 | COc1cccc(NC(=O)CN(C)C(=O)c2ccc(NC(=O)CC3SC(N4CCCCC4)=NC3=O)cc2)c1 (stereo not given) | inconclusive: -227%
37 | CC(C)NC(=O)NC(=O)COC(=O)c1cc(S(=O)(=O)N2CCCCC2)ccc1N1CCOCC1 | inconclusive: -65.1%
38 | Nc1nnc(-c2cn(-c3ccccc3)nc2-c2ccc(Cl)cc2)o1 | inactive: -17%
39 | O=S(=O)(c1ccc(S(=O)(=O)N2CCN(Cc3ccccc3)CC2)cc1)N1CCOCC1 | inconclusive: -89.3%
40 | CCN(CC(=O)Nc1ccccc1C(F)(F)F)C(=O)Cc1sc(C)nc1-c1ccc(F)cc1 | inconclusive: -76.7%
41 | CCOC(=O)c1ccc(-n2c(CN3CCC(C(N)=O)CC3)nc3ccc([N+](=O)[O-])cc3c2=O)cc1 | inactive: 4.31%
42 | CC1CCCCC1NC(=O)c1ccncc1 (stereo not given) | inconclusive: -54.4%
43 | CC(C)C[C@H](NC(=O)[C@@H](Cc1ccccc1)n1c(=O)[nH]c2ccccc2c1=O)C(=O)N[C@@H](Cc1ccccc1)C(=O)O | inconclusive: -278%
44 | CC(C)(C)NC(=O)NC(=O)CN1CCN(S(=O)(=O)c2ccc3c(c2)OCCO3)CC1 | inactive: -3.68%
45 | CCS(=O)(=O)Nc1ccc(C2=NN(C(=S)Nc3ccccc3)C(c3ccco3)C2)cc1 (stereo not given) | inconclusive: -53.6%
46 | C[N+](C)(C)C[C@H](O)CC(=O)[O-] | inconclusive: -415%
47 | CCOC(=O)C1CCCN(c2ncnc3c2cnn3-c2cccc(C)c2)C1 (stereo not given) | inconclusive: -234%
48 | COc1ccc(OC)c(S(=O)(=O)Nc2cc3c4c(c2)CC(=O)N4CCC3)c1 | inconclusive: -53.8%
49 | COc1ccc(Cn2c(=N)c(C(=O)NC3CCCCC3)cc3c(=O)n4ccccc4nc32)cc1 | inconclusive: -131%
50 | Cc1occc1C(=O)N/N=C/c1cnn(C)c1C | inconclusive: -113%
51 | N/C(=N\OC(=O)COc1ccc(Cl)cc1Br)c1cccnc1 | inactive: 4.13%
52 | O=C(Nc1ccccc1C(=O)N/N=C/c1ccc(O)cc1)c1ccccc1 | inactive: -3.49%
53 | Cn1c(SCC(=O)Nc2ccc(Br)cn2)nnc1C1CC1 | inactive: 5.34%
54 | CN1CCC(=C2c3ccccc3C(O)c3ccccc32)CC1 (stereo not given) | inactive: 165%
55 | CC1CCN(CCc2nc3cc(NC(=O)COc4ccccc4)ccc3n2C)CC1 | inconclusive: -102%
